In publication PMC7819943, “Rice protein-binding microarrays: a tool to detect cis-acting elements near promoter regions in rice”:
The other results are listed elsewhere or left out.

target: T1, OsSMF1 (Oryza sativa, UniProt Q6ZLB0 1-436); assay: protein-binding microarray (RPBM); PBS, 2% BSA, 51.3 ng/ul salmon testes DNA, 50 uM zinc acetate, 200 nM TF, 25 C, 1 h; high values mean tight binding; conditions: protein: recombinant; tags: N-terminal polyhistidine and DsRed monomer fusion (pET32a); chain copies: 2; label: CyDye5-dUTP incorporated in the synthesized complementary strand; 3' TTTTT single-stranded linker to array surface; dsDNA, one strand shown
T1 sequence: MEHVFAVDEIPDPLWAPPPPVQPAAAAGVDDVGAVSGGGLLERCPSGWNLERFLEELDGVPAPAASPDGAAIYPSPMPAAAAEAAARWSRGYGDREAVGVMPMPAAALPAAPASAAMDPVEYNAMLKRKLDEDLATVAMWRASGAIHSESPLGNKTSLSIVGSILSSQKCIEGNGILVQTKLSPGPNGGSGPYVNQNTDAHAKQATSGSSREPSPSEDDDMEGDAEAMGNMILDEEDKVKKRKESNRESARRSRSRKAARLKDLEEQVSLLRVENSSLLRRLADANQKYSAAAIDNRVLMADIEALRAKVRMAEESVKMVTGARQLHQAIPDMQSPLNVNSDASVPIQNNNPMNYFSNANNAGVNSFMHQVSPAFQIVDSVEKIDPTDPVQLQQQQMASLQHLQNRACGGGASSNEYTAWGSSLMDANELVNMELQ
Summary of the method: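 A custom Agilent array was converted to double-stranded form by primer extension with Cy5-dUTP and blocked with 2% BSA. Protein at 200 nM in PBS with 2% BSA, salmon testes DNA and 50 µM zinc acetate was applied for 1 h at 25 °C, followed by washing. The proteins were polyhistidine–DsRed N-terminal fusions of transcription factors, expressed in E. coli BL21-CodonPlus and Ni–NTA-purified. The binding signal is per-feature fluorescence intensity (arbitrary units) from an Axon 4000B scanner.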

Sequence | binding signal
GCTCACACACCTCACAACTCACAAGTCGAATACGTGTCTACGGAGTCACCTAGTGCAG | 7220 fluorescence intensity (a.u.)
CCAAGATGTGGGCACGGTGCCCATGGGCTGTATGTTGCTTCGGAGTCACCTAGTGCAG | 24600 fluorescence intensity (a.u.)
TTGCATTGCGTATCCAAAGTCCAGGAGACGTGGAATTTGTCGGAGTCACCTAGTGCAG | 3560 fluorescence intensity (a.u.)
TCGCAGCAGTGAGTGTGGTTTTGCCATGATCGACGTGCCCCGGAGTCACCTAGTGCAG | 4730 fluorescence intensity (a.u.)
TCGCGACGACCTGTGCGTACTGCAGTGCGGCGTCACCTATCGGAGTCACCTAGTGCAG | 4990 fluorescence intensity (a.u.)
AGTGCATCTCGACCACGCATTTCATCAAACACCTGGCGTGCGGAGTCACCTAGTGCAG | 4360 fluorescence intensity (a.u.)
TTAGTATATCATCATAGAAGAAAATTCTACACTATGTGTACGGAGTCACCTAGTGCAG | 3620 fluorescence intensity (a.u.)
GCAGATGATCTGTATCCATTGTATACAAGTTGCGTCATTTCGGAGTCACCTAGTGCAG | 5650 fluorescence intensity (a.u.)
ATACTCTAGATAATAATTGCTAGTGGATGATGATGTGGCACGGAGTCACCTAGTGCAG | 12400 fluorescence intensity (a.u.)
CACTGCCACGTCACAGGTCAGTAGAGTCGCCGTGGCCGTGCGGAGTCACCTAGTGCAG | 17600 fluorescence intensity (a.u.)
ACTGGGCCGGTGCTGCTGACGTCACGCCGAGCTACTTACCCGGAGTCACCTAGTGCAG | 21300 fluorescence intensity (a.u.)
TATTACTTCCTCCGTTTTACAATGTAAGTCATTCTAGCATCGGAGTCACCTAGTGCAG | 18800 fluorescence intensity (a.u.)
GGCTTGCGGCAGGCACCGAGGGCGTGGAATGCCAAGTTGGCGGAGTCACCTAGTGCAG | 3280 fluorescence intensity (a.u.)
GCTCGCTGACTGCGCCGAGTTTTATTCCCTACCGCCGCTCCGGAGTCACCTAGTGCAG | 3360 fluorescence intensity (a.u.)
GCGCGCCCGCCCGAAACCGATCGATCGATCGATCAGGTGCCGGAGTCACCTAGTGCAG | 4390 fluorescence intensity (a.u.)
ACATGTGGAGGGAACAGGGCGTGGAATCAAGGGTCGGGATCGGAGTCACCTAGTGCAG | 3300 fluorescence intensity (a.u.)
CATGATGATCGATCAGTGGCTGTCTGCGTCACAGTCACTACGGAGTCACCTAGTGCAG | 5370 fluorescence intensity (a.u.)
TTTGAAAACGTTGTTTGAAGTTGTCATAATTTGAAATTCACGGAGTCACCTAGTGCAG | 3250 fluorescence intensity (a.u.)
TCCGCCCTGCCACCTGGCACCCGAATATTCCTTCCGCCCGCGGAGTCACCTAGTGCAG | 6380 fluorescence intensity (a.u.)
AACGATATATTTGTTTTCTTGCTAAGCACAAGAGCTGGGGCGGAGTCACCTAGTGCAG | 3200 fluorescence intensity (a.u.)
ATGGCCGGAGAGAGCAGCTGCTGTACTGATGACGCCAACTCGGAGTCACCTAGTGCAG | 3550 fluorescence intensity (a.u.)

Sequence | binding signal
CCACCATGGCATGCCACGTCAACACACAGAGTGGGTTGGACGGAGTCACCTAGTGCAG | 17900 fluorescence intensity (a.u.)
AGGGTAATAACCCAGCCTGTGTTGTGTGTGTTGGTTTAGACGGAGTCACCTAGTGCAG | 3900 fluorescence intensity (a.u.)
GTTACACCATCCACGCGGCAAGACAATCAAGCCAAATGTTCGGAGTCACCTAGTGCAG | 6070 fluorescence intensity (a.u.)
CGTCGTCGTGTACCACGTCCTCCACCGCCGGCTTCCCGCGCGGAGTCACCTAGTGCAG | 6700 fluorescence intensity (a.u.)
CGCGAAGCCCACACGACGCACGGCCCAACTGCGAACGCTCCGGAGTCACCTAGTGCAG | 3140 fluorescence intensity (a.u.)
ACACACGAAGGAGCTGGAAACCAAACCCACGTACGATGCTCGGAGTCACCTAGTGCAG | 5490 fluorescence intensity (a.u.)
CCAATGACCCCGCAACCACATCTCCCAATGACCCCGCAACCGGAGTCACCTAGTGCAG | 3300 fluorescence intensity (a.u.)
CCCTTCCTCGCGCGCACTGATGACTCAGAAACACGCACGCCGGAGTCACCTAGTGCAG | 14200 fluorescence intensity (a.u.)
ACCCAACGACTCAGCGAACACATCACAACAGAACCCATGACGGAGTCACCTAGTGCAG | 3340 fluorescence intensity (a.u.)
GTCGTGTCGTGCCGGCCCATGGGTTGTGGTAGCCGTGCCGCGGAGTCACCTAGTGCAG | 18900 fluorescence intensity (a.u.)
ATCTTCGGGGTGGGTTACACATGCACAATTAACACGCTAGCGGAGTCACCTAGTGCAG | 4430 fluorescence intensity (a.u.)
TTCGCTTTCATCCCTTCCATGCCCCACCCGTTAGGTTTCCCGGAGTCACCTAGTGCAG | 20400 fluorescence intensity (a.u.)
ACTTAAGGCCTTTGGGGCTCCACGTTGAAGTCGGATGTGTCGGAGTCACCTAGTGCAG | 4010 fluorescence intensity (a.u.)
TCTCTACTCTGTCGTGGCATGACTTTTGTTGCTTTAATTTCGGAGTCACCTAGTGCAG | 5380 fluorescence intensity (a.u.)
CCAATTTAGAACCAAGCATTGAGTAGAATATAGAAAATATCGGAGTCACCTAGTGCAG | 25500 fluorescence intensity (a.u.)
CAATTCATTTATCTAGTCATCATTCCATTAAATTCTGCAGCGGAGTCACCTAGTGCAG | 4700 fluorescence intensity (a.u.)
CTTCCTGAGTTTCCTGAACCGTGCCCTGCGATCCGTGGCGCGGAGTCACCTAGTGCAG | 3140 fluorescence intensity (a.u.)
ATCTGATTACCCTTTCTCACTAGACACGTGCCAAAACTAGCGGAGTCACCTAGTGCAG | 5760 fluorescence intensity (a.u.)
TGAGATAATTAACATGTACTCTAGTCACTAACTTGCAATTCGGAGTCACCTAGTGCAG | 3570 fluorescence intensity (a.u.)
GGGTGAAGCGTCGCGCGGCGCGCCGTGGCGTGGCGTGGCGCGGAGTCACCTAGTGCAG | 6090 fluorescence intensity (a.u.)
GTTGAAAGTACAACCTTGCCAACGTGAACAAGGTAATGTCCGGAGTCACCTAGTGCAG | 3490 fluorescence intensity (a.u.)

A section taken from the entries so far, as a working copy:
Sequence | binding signal
TGAGATAATTAACATGTACTCTAGTCACTAACTTGCAATTCGGAGTCACCTAGTGCAG | 3570 fluorescence intensity (a.u.)
GGGTGAAGCGTCGCGCGGCGCGCCGTGGCGTGGCGTGGCGCGGAGTCACCTAGTGCAG | 6090 fluorescence intensity (a.u.)
